Earlier results as cited in US20230119068A1, “METHODS FOR RAPID SYNTHESIS OF PYRANOANTHOCYANINS” (Ohio State Innovation Foundation, priority 2020, published 2023).
For at least one compound, name, drawing or mass did not settle the structure.

Conditions: cited from earlier work

OC[C@H]1O[C@@H](Oc2cc3c(O)cc(O)cc3[o+]c2-c2ccc(O)c(O)c2)[C@H](O)[C@@H](O)[C@@H]1O [cyanidin-3-glucoside]
pKH: around 3.01
